Results deposited as PubChem BioAssay AID720505 (Drosophila RNAi Screening Center, 2013).
The deposit covers about 20,000 reagents; this is a random part of those that have a named target and a result. In the full data, about 2,100 (10%) were called active. 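Raw plate signals without normalisation; calls rest on control-based scores that were not deposited; replicate 2 separates called from uncalled poorly.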 A plus sign joins genes that one reagent is predicted to hit. Not given: the amount of reagent, the time to read-out.

Assay: 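Fly regulators or components of the CRAC channel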 (primary screen)
Cell system: Drosophila S2R+ cells
Reagents: long dsRNA against Drosophila genes
Challenge: thapsigargin (2 µM) in calcium-free buffer to empty internal stores, then 2 mM calcium added back
Measured: 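Fluo-4 signal in 384-well plates read on a FLIPR after thapsigargin (2 µM, calcium-free) store depletion and 2 mM calcium add-back; unnormalised mean endpoint per well; screen run twice, selected wells retested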
Direction: calcium signal and retest calcium signal: higher = more calcium entry after store depletion
Rule for the call: 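Knock-downs counted as hits when calcium entry dropped relative to STIM1 positive and Rho1 negative controls present on each plate; roughly 1500 genes called, with reductions of differing size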
Calls: active = called as lowering calcium entry; inactive = not called

| gene | amplicon | calcium signal, replicate 1 | calcium signal, replicate 2 | retest calcium signal, replicate 1 | retest calcium signal, replicate 2 | outcome |
| --- | --- | --- | --- | --- | --- | --- |
| nmo | DRSC11377 | 92.4 | 138 | – | – | inactive |
| Mst85C | DRSC16746 | 83.9 | 97.2 | – | – | inactive |
| CG9300 | DRSC11064 | 102 | 109 | – | – | inactive |
| PMCA | DRSC17113 | – | – | – | – | active |
| PMCA | DRSC17114 | – | – | – | – | active |
| PMCA | DRSC17154 | 49.6 | 59.4 | – | – | active |
| CG2116 | DRSC18206 | 107 | 78.7 | – | – | inactive |
| Eglp3 | DRSC04293 | 117 | 168 | – | – | inactive |
| CG31219 | DRSC15140 | 248 | 194 | – | – | inactive |
| bun | DRSC01253 | 164 | 84.5 | – | – | inactive |
| bun | DRSC01255 | 237 | 92.5 | – | – | inactive |
| bun | DRSC03500 | 111 | 156 | – | – | inactive |
| bun | DRSC23041 | 104 | 143 | – | – | inactive |
| CG30001 | DRSC05191 | 124 | 146 | – | – | inactive |
| Hexo2 | DRSC18671 | 264 | 88.1 | – | – | inactive |
| CG14683 | DRSC17035 | 120 | 178 | – | – | inactive |
| Ipk2 | DRSC00357 | 115 | 138 | – | – | inactive |
| CG4911 | DRSC10456 | 65.3 | 75.6 | – | – | active |
| CG2100 | DRSC12303 | 142 | 166 | – | – | inactive |
| Or49b | DRSC07494 | 92.8 | 192 | – | – | inactive |
| Doc3 | DRSC10480 | 103 | 70.1 | – | – | inactive |
| CG12017 | DRSC08225 | 94.3 | 91.2 | – | – | inactive |
| Gr33a | DRSC02589 | 74.2 | 96.3 | – | – | inactive |
| swa | DRSC18842 | 94.4 | 99.6 | – | – | inactive |
| PIG-Wa | DRSC00728 | 197 | 188 | – | – | inactive |
| vas (retired record) | DRSC22007 | 66.6 | 148 | – | – | inactive |
| CG15286 | DRSC01907 | 110 | 86.3 | – | – | inactive |
| CCHa1 | DRSC14821 | 111 | 116 | – | – | inactive |
| Drsl2 | DRSC08160 | 85.5 | 94.8 | – | – | inactive |
| Snx6 | DRSC03081 | 140 | 238 | – | – | inactive |
| PPP4R2r | DRSC18695 | 85.3 | 126 | 5737 | 113 | inactive |
| PPP4R2r | DRSC21503 | 122 | 97.1 | – | – | inactive |

Entries above with an active call (4):
| gene | amplicon | calcium signal, replicate 1 | calcium signal, replicate 2 | retest calcium signal, replicate 1 | retest calcium signal, replicate 2 | outcome |
| --- | --- | --- | --- | --- | --- | --- |
| PMCA | DRSC17113 | – | – | – | – | active |
| PMCA | DRSC17114 | – | – | – | – | active |
| PMCA | DRSC17154 | 49.6 | 59.4 | – | – | active |
| CG4911 | DRSC10456 | 65.3 | 75.6 | – | – | active |

Next results:
| gene | amplicon | calcium signal, replicate 1 | calcium signal, replicate 2 | retest calcium signal, replicate 1 | retest calcium signal, replicate 2 | outcome |
| --- | --- | --- | --- | --- | --- | --- |
| CycE | DRSC03295 | 71.4 | 88.7 | – | – | inactive |
| CycE | DRSC03296 | 108 | 130 | – | – | inactive |
| Cnot4 | DRSC02830 | 201 | 181 | – | – | inactive |
| Cnot4 | DRSC02831 | 154 | 188 | – | – | inactive |
| CG34221 | DRSC06150 | 87.8 | 119 | – | – | inactive |
| Cyp4ac2 | DRSC03303 | 194 | 79.3 | – | – | inactive |
| CG31705 | DRSC01991 | 74.8 | 90.7 | – | – | inactive |
| lncRNA:CR43372 | DRSC15041 | 110 | 105 | – | – | inactive |
| CG13051 | DRSC09932 | 84.6 | 157 | – | – | inactive |
| Octbeta3R | DRSC15351 | 152 | 98.5 | – | – | inactive |
| Octbeta3R | DRSC16191 | 174 | 111 | – | – | inactive |
| Octbeta3R | DRSC21853 | 85.4 | 168 | – | – | inactive |
| Octbeta3R | DRSC21902 | 117 | 320 | – | – | inactive |
| Octbeta3R | DRSC22350 | 76.2 | 210 | – | – | active |
| CG7567 | DRSC16258 | 151 | 110 | – | – | inactive |
| Actn | DRSC17724 | 110 | 111 | – | – | inactive |
| CG32320 | DRSC21514 | 131 | 117 | – | – | inactive |
| l(1)G0320 | DRSC18255 | 167 | 113 | – | – | inactive |
| dgt2 | DRSC02548 | 87.3 | 82.6 | – | – | inactive |
| CG12206 | DRSC17828 | 128 | 123 | – | – | inactive |
| Mink | DRSC14291 | 199 | 317 | – | – | inactive |
| bic | DRSC07584 | 157 | 80.6 | – | – | inactive |
| CG14963 | DRSC08422 | 89.2 | 120 | – | – | inactive |
| tun | DRSC05592 | 103 | 97.1 | – | – | inactive |
| tun | DRSC07127 | 116 | 93.9 | – | – | inactive |
| CG18343 | DRSC06726 | 61.7 | 112 | – | – | active |
| Trf4-1 | DRSC17775 | 219 | 118 | – | – | inactive |
| CG6271 | DRSC16006 | 135 | 131 | – | – | inactive |
| CG5641 | DRSC15852 | 115 | 138 | – | – | inactive |
| CG15353 | DRSC00383 | 104 | 134 | 5518 | 134 | inactive |
| CG12517 | DRSC02173 | 137 | 155 | – | – | inactive |
| Eogt | DRSC00727 | 70.2 | 140 | – | – | inactive |
| CG31436 | DRSC14661 | 204 | 140 | – | – | inactive |
| Cpn | DRSC16613 | 149 | 109 | – | – | inactive |
| CG7366 | DRSC10825 | 101 | 168 | – | – | inactive |
| CG8004 | DRSC10947 | 104 | 99.8 | – | – | inactive |
| tmod | DRSC14314 | 136 | 128 | – | – | inactive |
| tmod | DRSC15076 | 168 | 186 | – | – | inactive |
| tmod | DRSC17062 | 99 | 109 | – | – | inactive |
| CG10920 | DRSC17765 | 59.5 | 235 | – | – | active |
| B-H1 | DRSC19334 | 80.7 | 139 | 6059 | 115 | inactive |
| B-H1 | DRSC21922 | 80.2 | 239 | – | – | inactive |
| eRF1 | DRSC11779 | 113 | 107 | – | – | inactive |
| Karybeta3 | DRSC12355 | 161 | 103 | – | – | inactive |
| Sirt1 | DRSC03435 | 93 | 95.5 | – | – | inactive |
| Gp93 | DRSC15827 | 111 | 134 | – | – | inactive |
| LysD + LysB + LysC (retired record) | DRSC21249 | 70.8 | 193 | – | – | active |
| CG8128 | DRSC20084 | 142 | 144 | – | – | inactive |
| CG11911 | DRSC00331 | 90.3 | 175 | – | – | inactive |
| esg | DRSC03530 | 106 | 150 | – | – | inactive |
| CG7168 | DRSC16208 | 172 | 196 | – | – | inactive |
